The record followed here is PubChem BioAssay AID2685 (National Center for Advancing Translational Sciences (NCATS), 2010).

The other results are listed elsewhere or left out. Shown are side measurements of this screen, not its main read-out; they come without a call. The list favours compounds with an active or inconclusive main result. Potencies come from curve fits of mixed quality, noted in brackets.

This experiment is described as follows: qHTS Assay for Lipid Storage Modulators in Drosophila S3 Cells.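 As to cell number change: cells counted by Cell Tracker Red CMTPX staining in the red channel.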 The conditions noted are these: BODIPY lipid droplet fluorescence, 18-24 h; for cell number change: measured here: cell count max response, cells fed with added oleic acid. The gist of the method:
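Drosophila S3 cells got compounds at several concentrations plus oleic acid (400 uM solution). Laser-scanning cytometry with 488 nm excitation read lipid droplets at 500-530 nm and cells at 575-640 nm. Percent activity was relative to 20 uM Triacsin C.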
For orientation: Quantitative high-throughput screening tests each substance at several concentrations.

The mark [1] stands for this setting: measured here: cell number channel AC50, cells fed with added oleic acid.
Where [2] appears, read: measured here: lipid fluorescence (Fed channel) AC50, cells fed with added oleic acid.

Turning to `S=C(NC1CCCC1)N1CCN(C/C=C/c2ccccc2)CC1`, the cell number change was -42.7%. Besides, the AC50 (usually the concentration giving half of the maximal activity seen) under setting [1] is 1.16 µM [falling, full curve, poor fit].
Consider `O=C(CN1CCCC1)Nc1cccc(Cl)c1Cl`, for which the cell number change came out at 20.4%. The AC50 under setting [1] is 0.00461 µM [rising, full curve, poor fit]. Also, under setting [2], the AC50 is 29.1 µM [rising, single point].
Take `CC(C)(C)NC(=O)C(=O)NN=C1CCCCCC1`: the cell number change is 22.4%. Besides, the AC50 under setting [2] is 0.651 µM [rising, full curve, poor fit].
For the molecule `O=C(Nc1nccs1)c1cc2c(s1)-c1ccccc1OC2`, the cell number change was -31.2%. Also, the AC50 under setting [1] was 2.06 µM [falling, full curve]. Besides, the AC50 under setting [2] is 2.06 µM [rising, partial curve].
As for `Cc1c(C(=O)Nc2nccs2)oc2ccc(F)cc12`, the cell number change stood at 2.86%. Further, the AC50 under setting [2] is 1.16 µM [falling, single point].
For `Cc1ccc(Nc2nc(NCCCN3CCOCC3)nc(N)c2[N+](=O)[O-])cc1`, the cell number change was -8.19%. Besides, the AC50 under setting [2] is 16.4 µM [rising, partial curve, poor fit].
`O=C(CN(Cc1ccccc1)C(=O)CCC(=O)Nc1nccs1)NCC1CCCO1` (stereo not drawn): the cell number change was -1.28%. Moreover, the AC50 under setting [2] is 5.17 µM [rising, single point].
With `CC(=O)N1CCN(C(=O)c2cccc(S(=O)(=O)N3CCN(c4ccc(F)cc4)CC3)c2)CC1`, the cell number change is 36%. In addition, the AC50 under setting [1] was 14.6 µM [rising, single point].
`O=C(Nc1cccc(CCc2ccccn2)c1)c1cc(F)c(F)cc1Cl`: the cell number change was 13.7%. Also, the AC50 under setting [2] was 0.103 µM [rising, full curve, poor fit].
Regarding `CCOc1ccc(NC(=S)NC(=O)c2cnn(CC)c2)c([N+](=O)[O-])c1`, the cell number change is -26.2%. Further, the AC50 under setting [2] was 16.4 µM [falling, single point].
Take `O=C(c1ccc2snnc2c1)N1CCSCC1`: the cell number change was determined as 5.39%. Further, the AC50 under setting [2] is 0.00517 µM [falling, full curve, poor fit].
As for `CC(NC(=O)COC(=O)CC(c1ccccc1)c1ccccc1)c1ccccc1` (stereo not drawn), the cell number change turned out to be 8.99%. Further, the AC50 under setting [1] was 0.82 µM [falling, single point].
As to `O=C(CCSc1ccccc1)NC1CCCCCC1`, the cell number change is -6.37%.
For the molecule `CCn1c(CNC(=O)c2ccccc2Br)nnc1SCC(=O)NC1=NCCS1`, the cell number change turned out to be 17.9%.
For the molecule `CC(O)(C#CCN1CCCCCC1)c1ccccc1` (stereo not drawn), the cell number change is -5.79%.
`O=C(COc1cccc(F)c1)NNC(=O)c1cccc(-n2cccc2)c1`: under setting [1], the AC50 is 0.0731 µM [falling, full curve, poor fit].
In the case of `CCOc1ccc(S(=O)(=O)Nc2ccccc2C(=O)Nc2ccccc2N2CCOCC2)cc1`, the AC50 under setting [1] was 3.26 µM [rising, partial curve].
As for `C=CCNc1nnc(Cc2ccc(F)cc2)c(=O)[nH]1`, the cell number change amounted to 16.5%. Also, the AC50 under setting [1] was 0.00651 µM [rising, full curve, poor fit].
On to `COc1ccc(NC(=O)c2cc(-c3ccc4c(c3)OCO4)on2)cc1OC`, for which the cell number change amounted to 0.42%.
Regarding `CN(C)c1ccc(/C=C/C(=O)c2ccccc2)cc1[N+](=O)[O-]`, the cell number change is -12.2%. The AC50 under setting [2] was 4.61 µM [falling, partial curve].
With `CC[N+](CC)(CC)CC(=O)Nc1ccc(SC(F)F)cc1`, the cell number change was -22.5%.
As for `CCOc1ccc(CCNC(=O)COC(=O)COc2ccc(C#N)cc2)cc1OCC`, the cell number change was 15.1%. Besides, the concentration at half-maximal activity (AC50) under setting [2] was 0.517 µM [falling, single point].
In the case of `CCC(=O)Nc1nc2ccccc2n1CCN1CCOCC1`, the cell number change came out at 0.471%.
For `O=C(CSCc1nc2scc(-c3cccs3)c2c(=O)[nH]1)Nc1ccccn1`, the cell number change is -7.09%.
For the molecule `O=[N+]([O-])c1ccccc1N/N=C1\CC2CC=CC12` (stereo not drawn), the cell number change was -44.2%. Moreover, under setting [2], the AC50 was 0.0164 µM [falling, full curve, poor fit].
Take `CCN(c1ccc(OC)cc1)S(=O)(=O)c1ccc2c(c1)CC(C)N2C(=O)C1CC1` (stereo not drawn): the cell number change was -22.4%. The AC50 under setting [2] was 29.1 µM [falling, single point].
With `Cc1ccc(S(=O)(=O)N2CCOCC2)cc1NC(=O)CN1C(=O)CN(C)C1=O`, the cell number change stood at 4.87%. Besides, the AC50 under setting [1] is 2.91 µM [falling, single point].
Regarding `CCOc1ccccc1NC(=O)c1cc(-c2cc(OC)c(OC)c(OC)c2)nc2ccccc12`, the cell number change was -5.56%. In addition, the concentration at half-maximal activity (AC50) under setting [2] was 6.51 µM [falling, single point].
For `COc1ccc2c(=O)c3c(=O)n(-c4ccccc4)c(-c4ccco4)nc3oc2c1`, the cell number change came out at 25.4%. Further, the AC50 under setting [1] is 4.61 µM [rising, full curve, poor fit]. For the same molecule, the AC50 under setting [2] was 20.6 µM [rising, single point].
Regarding `O=C(CSc1ccc(Cl)cc1)NN=C1CCCCCC1`, the cell number change is -21.2%. Besides, under setting [1], the AC50 is 0.731 µM [falling, full curve, poor fit]. Moreover, the AC50 under setting [2] is 0.092 µM [falling, full curve, poor fit].
`O=C(Oc1ccccc1)c1c(Cl)cccc1P(=O)(O)O`: under setting [2], the AC50 is 4.11 µM [falling, full curve, poor fit].
As to `O=C1CSC(=S)N1/N=C/c1cccnc1`, the cell number change was 6.4%. Besides, the AC50 under setting [1] was 2.59 µM [rising, single point]. Further, under setting [2], the AC50 is 6.51 µM [rising, single point].
As for `CCCCn1c(N)c(N(CCOC)C(=O)c2ccc(Cl)c(S(=O)(=O)N3CCCCC3)c2)c(=O)[nH]c1=O`, the cell number change was -98.2%. Also, the AC50 under setting [1] was 29.1 µM [falling, single point].
For the molecule `Cc1ccccc1OCC(=O)NCC(C)(C)N1CCOCC1`, the cell number change worked out at 16.5%.
Take `CN(C)S(=O)(=O)Oc1ccccc1C(=O)Nc1ccc(F)cc1F`: the cell number change was 140%. In addition, the AC50 under setting [1] is 29.1 µM [rising, single point]. Moreover, the AC50 under setting [2] was 29.1 µM [rising, single point].
With `CCOc1cc(/C=C2\C(=N)N3N=C(S(C)(=O)=O)SC3=NC2=O)ccc1OCCOc1cccc(OC)c1`, the cell number change was -31.1%. Moreover, the AC50 under setting [1] was 0.058 µM [falling, full curve, poor fit]. Also, under setting [2], the AC50 is 9.2 µM [falling, partial curve].
On to `CCCCC(CC)CNC(=O)CCCCn1c(=O)[nH]c2ccsc2c1=O` (stereo not drawn), for which the cell number change was -22.8%. Besides, under setting [2], the AC50 was 16.4 µM [falling, single point].
`CC(C)(C(=O)N[C@H](CO)c1ccccc1)C(=O)N[C@H](CO)c1ccccc1`: the cell number change stood at 2.91%.
Turning to `CCOc1ccc2nc3cc(NCc4ccc(OC)cc4)ccc3c(N)c2c1`, the cell number change was -93.4%. Moreover, the AC50 under setting [1] is 25.9 µM [falling, single point]. Under setting [2], the AC50 is 16.4 µM [falling, partial curve].
Consider `CCOC(=O)C(=O)c1csc(NC(=O)COc2ccc(N(C)S(=O)(=O)c3ccc(F)cc3)cc2)n1`, for which the cell number change was -12.9%. The AC50 under setting [2] is 6.51 µM [rising, single point].
As for `CC(C)C(=O)N1CCN(c2ccccc2NC(=O)COc2ccc(C3CCCCC3)cc2)CC1`, the cell number change is 13.3%.
Turning to `Cc1ccc(-c2nc3ccccc3[nH]2)cc1NC(=O)c1ccco1`, the cell number change was determined as 10.6%. The AC50 under setting [1] was 0.0651 µM [rising, full curve, poor fit]. Also, under setting [2], the AC50 was 0.0651 µM [rising, full curve, poor fit].
With `CN(C)S(=O)(=O)c1ccc(C(=O)OCCn2cnc3c2c(=O)n(C)c(=O)n3C)cc1`, the cell number change was determined as 6.87%. For the same molecule, under setting [2], the AC50 was 0.731 µM [falling, single point].
For `Cc1ccccc1Nc1nc(NCc2ccco2)c2ccccc2n1`, the cell number change is -55.1%. Also, the AC50 under setting [1] is 20.6 µM [falling, partial curve]. Also, under setting [2], the AC50 is 20.6 µM [falling, partial curve].
Turning to `CCCCN(C)CCCNC(=O)c1cccc(N2CCCC2=O)c1`, the cell number change is -115%. Moreover, under setting [1], the AC50 is 20.6 µM [falling, single point].
As for `COc1ccc(OCc2nnc(SCC(=O)NCc3ccco3)o2)cc1`, the cell number change was 1.43%. Under setting [2], the AC50 was 6.51 µM [rising, full curve].
For the molecule `CC1(c2ccccc2Cl)NC(=O)N(CC(=O)N2CCc3ccccc3C2)C1=O` (stereo not drawn), the cell number change was -7.47%. Besides, the AC50 under setting [2] is 0.00517 µM [falling, full curve, poor fit].
As to `CCn1nc(C)c(/C=C/C(=O)Nc2ccc(C)cc2C)c1C`, the cell number change came to 13.5%. In addition, under setting [1], the AC50 is 1.84 µM [rising, single point]. Also, the AC50 under setting [2] was 2.31 µM [rising, full curve].
Regarding `O=C(NCC1CCN(C(=O)c2ccc([N+](=O)[O-])cc2)CC1)c1ccc([N+](=O)[O-])cc1`, the cell number change is 28.2%.
Take `COC(=O)C1C(=O)C(C(=O)c2ccccc2)C(=O)CC1(C)C` (stereo not drawn): the cell number change was found to be 8.92%. Under setting [2], the AC50 is 29.1 µM [rising, single point].
As for `Cc1ccc[n+](CC(=O)Nc2ccc([N+](=O)[O-])cc2Cl)c1`, under setting [1], the AC50 was 0.00461 µM [falling, full curve, poor fit].
For the molecule `CCOC(=O)c1sc(=NC(=O)c2cccc(Br)c2)n(C)c1C`, the cell number change was -0.236%. The AC50 under setting [2] is 29.1 µM [rising, single point].
Take `CC(C)C(=O)Nc1ccc2c(c1)nc(CCN1CCN(C)CC1)n2C`: the cell number change was -2.72%. For the same molecule, the AC50 under setting [2] is 18.4 µM [falling, partial curve, poor fit].
Regarding `CCc1ccccc1NC(=O)COc1ccc(C(=S)N2CCCC2)cc1`, the AC50 under setting [2] was 0.58 µM [falling, single point].
For the molecule `COc1ccc(CN2CC(=O)N(c3ccc(C)cc3)C2=S)cc1OC`, the cell number change amounted to 6.89%. In addition, the AC50 under setting [2] was 0.517 µM [rising, partial curve].
Consider `O=S(=O)(c1ccc(Cl)cc1)c1ccccn1`, for which the cell number change was determined as 3.4%. The AC50 under setting [2] is 0.00517 µM [rising, full curve, poor fit].
`Cc1cc(C(=O)N(C)Cc2ccc(Br)cc2)no1`: the cell number change amounted to 95.7%. Further, the AC50 under setting [1] was 20.6 µM [rising, partial curve]. Also, the AC50 under setting [2] is 25.9 µM [rising, partial curve].
With `O=C(O)c1ccc(F)c(S(=O)(=O)Nc2ccccc2Cl)c1`, the cell number change is -0.472%. For the same molecule, the AC50 under setting [2] was 5.17 µM [rising, partial curve].
In the case of `Cc1ccc(NC2Nc3cc(C)nn3S2)c(C)c1` (stereo not drawn), the cell number change stood at 11.9%. Further, the AC50 under setting [2] is 4.11 µM [rising, single point].
Turning to `Cc1ccc(C)c(SCC(=O)OCC(=O)Nc2ccc(S(=O)(=O)N3CCOCC3)cc2)c1`, the cell number change was -6.4%.
On to `O=C(Cn1nc(-c2ccccc2)c2ccccc2c1=O)Nc1cccnc1`, for which the cell number change turned out to be 0.482%. In addition, the AC50 under setting [1] is 0.651 µM [rising, single point]. Further, the AC50 under setting [2] was 1.84 µM [rising, partial curve].
